Measured values taken from patent publication US11160886B2 (BRACCO IMAGING SPA, priority 2016, dated 2021).

How the values were obtained:
[1] = general procedure: peptide synthesis; 2-Chlorotrityl chloride resin (loading 1.22 mmol/g); HBTU/DIPEA; conditions: whole synthesis, scale of the general procedure 200 mg resin
peptide synthesis = conditions: whole synthesis

Substance: Glu-Urea-Lys-2-naphthyl-L-Ala-Amc-Cys
- final HPLC purity ([1]; UV 230 nm): 99%
- isolated yield ([1]; total yield): 4%
- isolated mass (peptide synthesis): 19.8 mg
